In all, about 33,000 sequences were measured (“E-score (-0.5 to 0.5)”: median about -0.0059, highest 2% from about 0.26 on). The list shows a part of the results.
Biological target: T1, Cin5 (UniProt P40917)
T1 sequence: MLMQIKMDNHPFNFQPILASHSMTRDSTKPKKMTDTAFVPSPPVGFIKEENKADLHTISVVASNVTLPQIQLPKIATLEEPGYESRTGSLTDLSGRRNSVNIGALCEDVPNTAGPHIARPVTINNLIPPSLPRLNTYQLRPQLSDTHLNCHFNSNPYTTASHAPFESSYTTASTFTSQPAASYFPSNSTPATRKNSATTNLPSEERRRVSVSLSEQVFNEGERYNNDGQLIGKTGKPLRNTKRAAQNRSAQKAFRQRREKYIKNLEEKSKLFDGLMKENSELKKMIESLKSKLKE
Assay: PBM E-score (8-mer binding enrichment) (E-score (-0.5 to 0.5)); higher = stronger / more preferred TF binding
Conditions: protein concentration: 100 nM; construct: GST-full length
Outline: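 The E-score, a modified Wilcoxon-Mann-Whitney statistic, was computed by the Universal PBM Analysis Suite for every ungapped eight-base word pooled with its reverse complement. Scans behind it were normalised with masliner after bound GST-tagged yeast transcription factors were detected with fluorescent anti-GST. The proteins, at about 100-200 nM, had been applied to universal all-10-mer Agilent arrays made double-stranded by primer extension.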

| Sequence | PBM E-score |
| --- | --- |
| ATTCCAAC | 0.038 |
| GCCCGGCC | -0.261 |
| GGCGGATA | 0.0745 |
| AAACATTC | 0.0964 |
| AGCCGGAA | 0.184 |
| AGATTAGG | 0.0277 |
| CGTGCGTA | -0.137 |
| GCCAACCA | -0.165 |
| GAATGTAA | 0.241 |
| CGCGCTAA | 0.225 |
| CGAGCACA | 0.148 |
| AGCCTTTG | -0.169 |
| AACGGAAT | 0.212 |
| ACAGCCGA | -0.165 |
| CTAAGATC | 0.103 |
| CCCAATAG | -0.0254 |
| AGCGTTTC | -0.137 |
| GGTAGGTA | 0.00439 |
| GCGTCCGA | -0.0919 |
| ATCCTGTG | 0.0179 |
| CCAGTCGG | -0.178 |
| GATAGACA | -0.0361 |
| AATAATTA | 0.35 |
| ATGGGCGG | 0.21 |
| AAGTATGG | 0.12 |

| Sequence | PBM E-score |
| --- | --- |
| ATTAGTAC | 0.173 |
| CATTAGCA | -0.00263 |
| TGACCTAA | 0.209 |
| CTTTCCGC | 0.0716 |
| AGGTGACT | -0.121 |
| CCACATTC | 0.0858 |
| GCAGATCC | -0.00135 |
| AGGGGGCC | -0.423 |
| AAAACTCG | 0.065 |
| TCACTGAA | 0.106 |
| CATCTCTC | 0.0681 |
| AGTCGTTC | -0.112 |
| AGATGGAT | 0.104 |
| CACCTCGA | 0.224 |
| ACTCAAAA | 0.0884 |
| CCTGCGCC | -0.209 |
| CCCAGGTC | -0.165 |
| ATTCTTAC | 0.251 |
| ATTAGAGG | -0.25 |
| ATATAGAC | 0.101 |
| CACCGTAA | 0.124 |
| CCCCAGAC | -0.161 |
| ACGCAACG | -0.0278 |
| GGAAATAC | 0.118 |
| AGCGTTAC | -0.0689 |

| Sequence | PBM E-score |
| --- | --- |
| AGTCCGAC | -0.164 |
| AGAACGGA | -0.0999 |
| ATGGAGAA | 0.147 |
| TAAGATGA | 0.079 |
| ATCCGTAG | -0.189 |
| CTGCAATC | 0.0796 |
| GACAATAC | 0.223 |
| CTGTCAGA | -0.0993 |
| CCTCGACA | -0.17 |
| CTACAGTA | 0.129 |
| CAGCCACC | -0.111 |
| GTGAGGTA | 0.0001 |
| CTCAGACC | -0.0636 |
| AGTAATAT | 0.306 |
| CACAAAAG | 0.0722 |
| CAGGGCTC | -0.3 |
| CTAATCGC | 0.158 |
| CGAGAAAA | -0.0296 |
| GCGCTACC | -0.22 |
| AAGAAGCA | 0.0219 |
| TTATCAAA | 0.298 |
| GCGAGGCA | 0.0262 |
| TATGAACA | 0.00246 |
| AAGACGCT | -0.249 |
| ATTTAATA | 0.295 |

Rewritten with tabs: entries from further up
Sequence	PBM E-score
AGATTAGG	0.0277
CGTGCGTA	-0.137
GCCAACCA	-0.165
GAATGTAA	0.241
CGCGCTAA	0.225

Continuation:

| Sequence | PBM E-score |
| --- | --- |
| AAATGGAA | 0.0906 |
| ATTGCGGA | 0.0595 |
| CCGCAAGG | -0.0452 |
| CTAACGCA | 0.00274 |
| GAGTCCAC | -0.184 |
| ACTCGAAT | -0.0861 |
| CGTAGCGA | -0.11 |
| CACACGAG | -0.157 |
| ATTTTGTA | 0.286 |
| AGATTATA | 0.15 |
| ATTCTCCG | 0.0653 |
| AAACACGA | 0.121 |
| CAGCTTCA | -0.185 |
| TCAGCGAA | -0.0492 |
| CGCGACCA | 0.1 |
| GGTGGGTA | 0.0827 |
| ATCCTTCG | -0.058 |
| CACGATTA | 0.154 |
| AGTCTGAC | -0.0909 |
| GATGGCAC | -0.189 |
| AAAACTGA | -0.0242 |
| AGTTGGGC | 0.0862 |
| GGTTTTTA | 0.0638 |
| GACCGAAA | 0.0524 |
| ACCGTAAG | 0.144 |

Looked up one by one from the entries so far, two records:

| Sequence | PBM E-score |
| --- | --- |
| GGTTTTTA | 0.0638 |
| ATCCGTAG | -0.189 |

(cont.)

| Sequence | PBM E-score |
| --- | --- |
| CCGCGGGA | 0.316 |
| CAAAAGTA | 0.0823 |
| AAGTCTCG | -0.241 |
| CCGGAGGA | -0.248 |
| ATGGGCTA | 0.13 |
| ACTAACTA | 0.0916 |
| TCTTTTAA | -0.00889 |
| CTCTCCAA | 0.0368 |
| ATGGCACA | -0.0295 |
| CCGTTGAG | -0.157 |
| TCATGCCA | 0 |
| CTATGGCA | -0.0671 |
| AGGCGGTG | -0.102 |
| CAGCCCTC | -0.266 |
| CCTCTGCA | -0.129 |
| ACTAGCCG | -0.158 |
| ACACGGCC | -0.139 |
| CCAACCAA | -0.0346 |
| CGCTGAGC | 0.0206 |
| CCTACGAC | -0.123 |
| TCGTAAAA | 0.0717 |
| CGATTATC | 0.112 |
| AAACAACA | 0.0705 |
| ATAATTTG | 0.208 |
| ACGCCACC | -0.234 |

| Sequence | PBM E-score |
| --- | --- |
| TCTGAAGA | -0.225 |
| TCTCTGCA | -0.116 |
| CGGGGATA | -0.00936 |
| CCACATCG | -0.0556 |
| AAGTTGTA | 0.178 |
| AAGGGTCG | -0.122 |
| CGCATCCA | 0.058 |
| GTAGTGAC | 0.124 |
| GGCTGTAA | -0.129 |
| AGGCATTA | -0.00853 |
| CATCGACG | -0.0851 |
| CGGGGTCC | -0.203 |
| AGATCTCA | 0.0634 |
| GCTCGATA | -0.0435 |
| GAGAACGA | 0.0534 |
| GCCGTTGA | -0.0093 |
| GCTTATGA | 0.235 |
| GGCCATGA | -0.0378 |
| GTTGTACA | 0.0708 |
| CAGGGTTA | -0.13 |
| ACTGTCAC | -0.126 |
| AGACATCA | 0.0536 |
| AGGTGTTA | -0.00894 |
| CGACGTCC | 0.0493 |
| GCTCGAGA | -0.211 |

Reformatted with each value named: part of the list above.
CGAGCACA
  PBM E-score = 0.148
CTTTCCGC
  PBM E-score = 0.0716
AGTAATAT
  PBM E-score = 0.306
CAGCTTCA
  PBM E-score = -0.185

Additional results follow:

| Sequence | PBM E-score |
| --- | --- |
| ACGACGCT | -0.2 |
| ACAATAAA | 0.162 |
| CCCGTTAA | -0.077 |
| ATAGCTAC | 0.0829 |
| AACATTGG | -0.151 |
| ATCGGAGC | -0.124 |
| ATAAGGGA | -0.038 |
| AGGCTCGC | -0.162 |
| AACGTAAT | 0.421 |
| CGAAGGAA | -0.0716 |
| ATTCTAAA | 0.021 |
| AGATTAAA | 0.212 |
| CCATTGAC | -0.0631 |
| CCAGCCGC | -0.0701 |
| AGAGTACG | -0.0321 |
| TCCGTTCA | -0.00091 |
| GAGGGACA | -0.0319 |
| ATGTTAAT | 0.121 |
| CATGCTCG | -0.0648 |
| CAAAGGGC | -0.14 |
| ATGGGACG | -0.114 |
| GTAGTATA | 0.218 |

Source: the supplement of paper PMC3334620
